Data as given in PubChem BioAssay AID1259331 (Drosophila RNAi Screening Center, 2017).

Aim: 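Genes whose knock-down changes cell survival under toxic zinc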 (primary screen)
Cell system: Drosophila S2R+ cells
Knock-down reagent: long dsRNA against Drosophila genes
Duration: 5 days (4 days knock-down, then 1 day zinc)
Conditions: zinc chloride at 15 mM final level for 1 day
Measured: 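Luminescent ATP assay standing in for viability; Z score is the mean over three replicate plates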
Scale: mean Z score: higher = more ATP than other wells, better survival under zinc; ATP luminescence: higher = more ATP, more viable cells
Hit rule: 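Hit when the absolute Z score is greater than 1.5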
Calls: active = hit, ATP up or down; inactive = not a hit
Shown is one part, drawn at random, of about 3,100 deposited reagents. Over the whole deposit, 126 (4.1%) are marked active. 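Calls are per reagent; zinc was so toxic that few knock-downs lowered ATP further, so most hits raise ATP.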 Raw values vary from plate to plate and are shown uncorrected. The record does not give: the amount of reagent.

nAChRalpha7 (nicotinic Acetylcholine Receptor alpha7) [DRSC20078]
- mean Z score: -0.247
- ATP luminescence, replicate 1: 40485
- ATP luminescence, replicate 2: 39833
- outcome: inactive

nAChRalpha7 (nicotinic Acetylcholine Receptor alpha7) [DRSC20081]
- mean Z score: -0.119
- ATP luminescence, replicate 1: 37344
- ATP luminescence, replicate 2: 39628
- outcome: inactive

rdgB (retinal degeneration B) [DRSC20365]
- mean Z score: 0.238
- ATP luminescence, replicate 1: 52255
- ATP luminescence, replicate 2: 35633
- outcome: inactive

rdgB (retinal degeneration B) [DRSC27840]
- mean Z score: 0.183
- ATP luminescence, replicate 1: 62347
- ATP luminescence, replicate 2: 59380
- outcome: inactive

AstC-R1 (Allatostatin C receptor 1) [DRSC10799]
- mean Z score: -0.121
- ATP luminescence, replicate 1: 75192
- ATP luminescence, replicate 2: 59552
- outcome: inactive

AstC-R1 (Allatostatin C receptor 1) [DRSC29648]
- mean Z score: 0.0104
- ATP luminescence, replicate 1: 63890
- ATP luminescence, replicate 2: 59174
- outcome: inactive

Nup54 (Nucleoporin 54kD) [DRSC07282]
- mean Z score: -0.178
- ATP luminescence, replicate 1: 28827
- ATP luminescence, replicate 2: 30989
- outcome: inactive

CG3168 [DRSC18287]
- mean Z score: -0.286
- ATP luminescence, replicate 1: 40982
- ATP luminescence, replicate 2: 44257
- outcome: inactive

CG3168 [DRSC25481]
- mean Z score: -0.622
- ATP luminescence, replicate 1: 52515
- ATP luminescence, replicate 2: 51081
- outcome: inactive

wun2 (wunen-2) [DRSC07566]
- mean Z score: -0.135
- ATP luminescence, replicate 1: 58144
- ATP luminescence, replicate 2: 69716
- outcome: inactive

wun2 (wunen-2) [DRSC36974]
- mean Z score: -0.00922
- ATP luminescence, replicate 1: 47909
- ATP luminescence, replicate 2: 46880
- outcome: inactive

wun2 (wunen-2) [DRSC36975]
- mean Z score: 0.65
- ATP luminescence, replicate 1: 55736
- ATP luminescence, replicate 2: 59569
- outcome: inactive

Ir25a (Ionotropic receptor 25a) [DRSC00462]
- mean Z score: 0.226
- ATP luminescence, replicate 1: 55762
- ATP luminescence, replicate 2: 39318
- outcome: inactive

Ir25a (Ionotropic receptor 25a) [DRSC26910]
- mean Z score: 1.23
- ATP luminescence, replicate 1: 78153
- ATP luminescence, replicate 2: 77645
- outcome: inactive

CG14420 [DRSC17917]
- mean Z score: 0.508
- ATP luminescence, replicate 1: 67886
- ATP luminescence, replicate 2: 81213
- outcome: inactive

CG14420 [DRSC25167]
- mean Z score: -0.374
- ATP luminescence, replicate 1: 53276
- ATP luminescence, replicate 2: 50909
- outcome: inactive

Kr-h2 (Kruppel homolog 2) [DRSC03356]
- mean Z score: -0.223
- ATP luminescence, replicate 1: 42314
- ATP luminescence, replicate 2: 33430
- outcome: inactive

Kr-h2 (Kruppel homolog 2) [DRSC39752]
- mean Z score: -0.261
- ATP luminescence, replicate 1: 57923
- ATP luminescence, replicate 2: 53086
- outcome: inactive

Oatp26F (Organic anion transporting polypeptide 26F) [DRSC02149]
- mean Z score: -0.168
- ATP luminescence, replicate 1: 49934
- ATP luminescence, replicate 2: 40193
- outcome: inactive

Oatp26F (Organic anion transporting polypeptide 26F) [DRSC02695]
- mean Z score: -0.42
- ATP luminescence, replicate 1: 67827
- ATP luminescence, replicate 2: 66147
- outcome: inactive

Oatp26F (Organic anion transporting polypeptide 26F) [DRSC27346]
- mean Z score: -0.242
- ATP luminescence, replicate 1: 50488
- ATP luminescence, replicate 2: 62467
- outcome: inactive

CG3803 [DRSC04420]
- mean Z score: -0.0389
- ATP luminescence, replicate 1: 43777
- ATP luminescence, replicate 2: 39877
- outcome: inactive

Or71a (Odorant receptor 71a) [DRSC11244]
- mean Z score: -0.372
- ATP luminescence, replicate 1: 68572
- ATP luminescence, replicate 2: 54321
- outcome: inactive

Or71a (Odorant receptor 71a) [DRSC39566]
- mean Z score: -0.412
- ATP luminescence, replicate 1: 56602
- ATP luminescence, replicate 2: 50789
- outcome: inactive
